# Test results from patent publication USRE30451E, “Novel process for producing antibiotics bleomycin” (priority 1969, dated 1980).
# Tested on: Ehrlich ascites carcinoma cells
# Details: higher = less toxic and more effective
row,Compound,LD50 /ED50 Index
1,"Cc1c(N)nc(C(CC(N)=O)NCC(N)C(N)=O)nc1C(=O)NC(C(=O)NC(C)C(O)C(C)C(=O)NC(C(=O)NCCc1nc(-c2nc(C(=O)NCC3CCNCC3)cs2)cs1)C(C)O)C(OC1OC(CO)C(O)C(O)C1OC1OC(CO)C(O)C(OC(N)=O)C1O)c1cnc[nH]1 (centres unmarked) [Compound 41, 4-piperidylmethylamino-bleomycin]",6
2,"Cc1c(N)nc(C(CC(N)=O)NCC(N)C(N)=O)nc1C(=O)NC(C(=O)NC(C)C(O)C(C)C(=O)NC(C(=O)NCCc1nc(-c2nc(C(=O)NCCc3cnc[nH]3)cs2)cs1)C(C)O)C(OC1OC(CO)C(O)C(O)C1OC1OC(CO)C(O)C(OC(N)=O)C1O)c1cnc[nH]1 (centres unmarked) [Compound 42, 2-(4-imidazolyl)-ethylamino-bleomycin]",6
3,"Cc1c(N)nc(C(CC(N)=O)NCC(N)C(N)=O)nc1C(=O)NC(C(=O)NC(C)C(O)C(C)C(=O)NC(C(=O)NCCc1nc(-c2nc(C(=O)NCCCNCCCCCCN)cs2)cs1)C(C)O)C(OC1OC(CO)C(O)C(O)C1OC1OC(CO)C(O)C(OC(N)=O)C1O)c1cnc[nH]1 (centres unmarked) [Compound 43, 3-(6-aminohexyl)-aminopropylamino-bleomycin]",44
4,"Cc1c(N)nc(C(CC(N)=O)NCC(N)C(N)=O)nc1C(=O)NC(C(=O)NC(C)C(O)C(C)C(=O)NC(C(=O)NCCc1nc(-c2nc(C(=O)NCCCNCCc3cccnc3)cs2)cs1)C(C)O)C(OC1OC(CO)C(O)C(O)C1OC1OC(CO)C(O)C(OC(N)=O)C1O)c1cnc[nH]1 (stereo not drawn) [Compound 44, 3-[2-(β-pyridyl)-ethyl]-aminopropylamino-bleomycin]",49
5,"COCCNCCCNC(=O)c1csc(-c2csc(CCNC(=O)C(NC(=O)C(C)C(O)C(C)NC(=O)C(NC(=O)c3nc(C(CC(N)=O)NCC(N)C(N)=O)nc(N)c3C)C(OC3OC(CO)C(O)C(O)C3OC3OC(CO)C(O)C(OC(N)=O)C3O)c3cnc[nH]3)C(C)O)n2)n1 (centres unmarked) [Compound 45, 3-(2-methoxyethyl)-aminopropylamino-bleomycin]",24
6,"COCCC(C)NCCCNC(=O)c1csc(-c2csc(CCNC(=O)C(NC(=O)C(C)C(O)C(C)NC(=O)C(NC(=O)c3nc(C(CC(N)=O)NCC(N)C(N)=O)nc(N)c3C)C(OC3OC(CO)C(O)C(O)C3OC3OC(CO)C(O)C(OC(N)=O)C3O)c3cnc[nH]3)C(C)O)n2)n1 (centres unmarked) [Compound 46, 3-(1-methyl-3-methoxypropyl)-aminopropylamino-bleomycin]",24
7,"Cc1c(N)nc(C(CC(N)=O)NCC(N)C(N)=O)nc1C(=O)NC(C(=O)NC(C)C(O)C(C)C(=O)NC(C(=O)NCCc1nc(-c2nc(C(=O)NCCCNC3CCCCC3O)cs2)cs1)C(C)O)C(OC1OC(CO)C(O)C(O)C1OC1OC(CO)C(O)C(OC(N)=O)C1O)c1cnc[nH]1 (centres unmarked) [Compound 47, 3-(2-hydroxycyclohexyl)-aminopropylamino-bleomycin]",12
8,"Cc1c(N)nc(C(CC(N)=O)NCC(N)C(N)=O)nc1C(=O)NC(C(=O)NC(C)C(O)C(C)C(=O)NC(C(=O)NCCc1nc(-c2nc(C(=O)NCCCNCCCN)cs2)cs1)C(C)O)C(OC1OC(CO)C(O)C(O)C1OC1OC(CO)C(O)C(OC(N)=O)C1O)c1cnc[nH]1 (centres unmarked) [Compound 48, 3-(aminopropyl)-aminopropylamino-bleomycin]",45
